Data published in patent publication US20040142894, “Modulation of cellular proliferation” (published 2004).

Experiments:
[1] = target: T1, HiNF-P (endogenous, HeLa nuclear extract) (Homo sapiens) (UniProt Q9BQA5); assay: EMSA; conditions: Zn2+ and Mg2+ 0.2 mM, room temperature; complex blocked by HiNF-P antisera; protein in an extract; label: 32P
T1 sequence (looked up, limits assumed): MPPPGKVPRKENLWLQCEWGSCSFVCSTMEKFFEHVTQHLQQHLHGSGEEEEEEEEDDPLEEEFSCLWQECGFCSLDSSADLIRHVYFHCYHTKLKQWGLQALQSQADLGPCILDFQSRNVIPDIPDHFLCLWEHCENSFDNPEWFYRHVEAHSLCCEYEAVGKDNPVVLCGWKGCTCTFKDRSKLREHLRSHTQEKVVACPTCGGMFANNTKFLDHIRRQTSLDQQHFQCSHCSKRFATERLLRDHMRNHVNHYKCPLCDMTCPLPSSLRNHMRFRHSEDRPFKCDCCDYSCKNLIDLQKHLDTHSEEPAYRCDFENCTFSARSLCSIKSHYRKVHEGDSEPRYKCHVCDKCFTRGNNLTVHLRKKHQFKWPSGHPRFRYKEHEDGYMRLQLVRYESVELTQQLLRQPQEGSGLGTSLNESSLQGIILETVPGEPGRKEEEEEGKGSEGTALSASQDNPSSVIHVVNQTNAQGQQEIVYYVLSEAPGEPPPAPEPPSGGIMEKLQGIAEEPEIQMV

[2] = target: T1, HiNF-P (endogenous, HeLa nuclear extract) (Homo sapiens); assay: competition with a labelled probe; conditions: excess cold mutant does not compete; protein in an extract; variant of Site II minimal HiNF-P binding oligo

Does “GATCCTTCGGTTTTCAATCTGGTCCGAT (double strand) [Site II minimal HiNF-P binding oligo]” bind [1]?
Result: binds

Does “GATCCTTCGGTTTTCAATCTTCTACGAT (double strand) [Site II mutant H4-Pmut]” bind [2]?
Result: no binding

Where cells or extracts were used, other partners may take part. For some assays here: A negative result means that nothing was seen under these conditions. Tags and fusion partners may be left off the protein sequences shown.
